Results reported in article PMC10903679.
These are yes or no findings as the source states them, for the method shown. Binding seen in cells or lysates may run through a third protein. Some binding calls cover weakened binding; strength is not graded here.

Sequences of proteins named here, by UniProt entry; tags and fusion partners are left off. Residues count along the entry.
UniProt Q16769, residues 29-361: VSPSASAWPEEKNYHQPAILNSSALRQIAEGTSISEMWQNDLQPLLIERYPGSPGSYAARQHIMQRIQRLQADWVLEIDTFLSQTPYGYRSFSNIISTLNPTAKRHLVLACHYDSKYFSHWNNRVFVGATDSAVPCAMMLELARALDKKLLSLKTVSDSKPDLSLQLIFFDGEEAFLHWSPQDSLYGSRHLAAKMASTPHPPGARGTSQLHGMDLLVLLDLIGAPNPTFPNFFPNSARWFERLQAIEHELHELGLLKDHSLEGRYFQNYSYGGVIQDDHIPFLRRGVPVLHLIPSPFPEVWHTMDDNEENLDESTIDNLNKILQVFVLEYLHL
UniProt Q04206: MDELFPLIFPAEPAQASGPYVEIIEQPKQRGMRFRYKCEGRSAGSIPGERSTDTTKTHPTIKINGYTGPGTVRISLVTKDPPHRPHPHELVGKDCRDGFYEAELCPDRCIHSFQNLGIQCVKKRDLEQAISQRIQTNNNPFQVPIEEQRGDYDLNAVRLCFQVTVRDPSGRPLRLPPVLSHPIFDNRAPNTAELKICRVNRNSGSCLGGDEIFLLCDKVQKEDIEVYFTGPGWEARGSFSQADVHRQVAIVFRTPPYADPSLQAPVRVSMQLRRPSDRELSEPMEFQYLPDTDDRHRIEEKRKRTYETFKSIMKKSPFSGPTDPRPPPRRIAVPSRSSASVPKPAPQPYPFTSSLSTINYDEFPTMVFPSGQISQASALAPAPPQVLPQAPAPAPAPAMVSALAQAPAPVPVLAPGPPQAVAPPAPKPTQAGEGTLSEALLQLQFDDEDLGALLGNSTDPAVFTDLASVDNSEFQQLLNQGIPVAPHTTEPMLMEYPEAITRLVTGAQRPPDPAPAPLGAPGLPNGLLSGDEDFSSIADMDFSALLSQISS

Molecular target: GST-QPCT fusion protein (UniProt Q16769)
Assay: pull-down; GST-QPCT (E. coli) as bait, GST pull-down kit (Thermo Fisher Scientific); MTDH and NF-κB (p65) of MCF-7 and MDA-MB-231 cells detected by blot; only the target purified

In the case of NF-κB (p65) (from UniProt Q04206 1-551), the binding is reported as “binds”.

B1: metadherin (MTDH) (protein, UniProt Q86UE4 1-582)
chain: MAARSWQDELAQQAEEGSARLREMLSVGLGFLRTELGLDLGLEPKRYPGWVILVGTGALGLLLLFLLGYGWAAACAGARKKRRSPPRKREEAAAVPAAAPDDLALLKNLRSEEQKKKNRKKLSEKPKPNGRTVEVAEGEAVRTPQSVTAKQPPEIDKKNEKSKKNKKKSKSDAKAVQNSSRHDGKEVDEGAWETKISHREKRQQRKRDKVLTDSGSLDSTIPGIENTITVTTEQLTTASFPVGSKKNKGDSHLNVQVSNFKSGKGDSTLQVSSGLNENLTVNGGGWNEKSVKLSSQISAGEEKWNSVSPASAGKRKTEPSAWSQDTGDANTNGKDWGRSWSDRSIFSGIGSTAEPVSQSTTSDYQWDVSRNQPYIDDEWSGLNGLSSADPNSDWNAPAEEWGNWVDEERASLLKSQEPIPDDQKVSDDDKEKGEGALPTGKSKKKKKKKKKQGEDNSTAQDTEELEKEIREDLPVNTSKTRPKQEKAFSLKTISTSDPAEVLVKNSQPIKTLPPATSTEPSVILSKSDSDKSSSQVPPILQETDKSKSNTKQNSVPPSQTKSETSWESPKQIKKKKKARRET
With B1 the binding was “no binding”.
